Measured values as given in PMC3672163.
No constants are given. Whether binding was seen depends on the method and setting. In cells and extracts the contact can be indirect. Some binding calls cover weakened binding; strength is not graded here.

Amino acid sequences for entries named in this document (tags omitted). A change or cut given only in a name is not applied to a line headed by its entry. Residues count along the entry.
UniProt O95235: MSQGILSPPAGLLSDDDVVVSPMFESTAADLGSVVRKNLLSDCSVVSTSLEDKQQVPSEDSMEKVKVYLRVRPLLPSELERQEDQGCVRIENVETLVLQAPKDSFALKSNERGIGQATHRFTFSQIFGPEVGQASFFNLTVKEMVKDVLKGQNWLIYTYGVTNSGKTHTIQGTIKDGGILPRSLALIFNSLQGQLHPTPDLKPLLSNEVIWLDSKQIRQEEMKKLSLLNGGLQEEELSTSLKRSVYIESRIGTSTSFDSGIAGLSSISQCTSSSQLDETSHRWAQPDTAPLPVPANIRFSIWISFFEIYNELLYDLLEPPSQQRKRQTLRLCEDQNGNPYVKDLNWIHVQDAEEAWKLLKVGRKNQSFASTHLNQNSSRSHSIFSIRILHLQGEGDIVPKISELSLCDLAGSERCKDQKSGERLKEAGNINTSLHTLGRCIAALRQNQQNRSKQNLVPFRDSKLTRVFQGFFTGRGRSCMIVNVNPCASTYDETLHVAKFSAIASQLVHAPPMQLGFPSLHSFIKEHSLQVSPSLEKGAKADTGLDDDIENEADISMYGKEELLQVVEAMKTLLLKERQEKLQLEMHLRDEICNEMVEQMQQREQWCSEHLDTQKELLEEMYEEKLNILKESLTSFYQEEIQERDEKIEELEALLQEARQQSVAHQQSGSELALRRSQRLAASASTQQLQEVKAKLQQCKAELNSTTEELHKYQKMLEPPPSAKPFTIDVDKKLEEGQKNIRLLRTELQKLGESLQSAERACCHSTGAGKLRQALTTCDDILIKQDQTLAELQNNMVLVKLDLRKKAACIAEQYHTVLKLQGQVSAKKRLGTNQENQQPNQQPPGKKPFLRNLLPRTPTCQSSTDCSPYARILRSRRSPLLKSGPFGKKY
HA-MKlp2(1-842): residues 1-842 of O95235
UniProt Q96GD4: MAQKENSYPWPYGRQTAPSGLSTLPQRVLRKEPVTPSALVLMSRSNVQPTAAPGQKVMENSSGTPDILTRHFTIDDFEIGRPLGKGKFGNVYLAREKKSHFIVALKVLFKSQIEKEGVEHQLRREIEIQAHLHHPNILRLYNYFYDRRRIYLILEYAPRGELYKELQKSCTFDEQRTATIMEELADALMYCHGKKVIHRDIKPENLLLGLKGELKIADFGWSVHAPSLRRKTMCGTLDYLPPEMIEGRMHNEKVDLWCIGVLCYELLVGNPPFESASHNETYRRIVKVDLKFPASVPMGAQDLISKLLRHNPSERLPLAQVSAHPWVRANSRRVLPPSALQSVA
UniProt P53350: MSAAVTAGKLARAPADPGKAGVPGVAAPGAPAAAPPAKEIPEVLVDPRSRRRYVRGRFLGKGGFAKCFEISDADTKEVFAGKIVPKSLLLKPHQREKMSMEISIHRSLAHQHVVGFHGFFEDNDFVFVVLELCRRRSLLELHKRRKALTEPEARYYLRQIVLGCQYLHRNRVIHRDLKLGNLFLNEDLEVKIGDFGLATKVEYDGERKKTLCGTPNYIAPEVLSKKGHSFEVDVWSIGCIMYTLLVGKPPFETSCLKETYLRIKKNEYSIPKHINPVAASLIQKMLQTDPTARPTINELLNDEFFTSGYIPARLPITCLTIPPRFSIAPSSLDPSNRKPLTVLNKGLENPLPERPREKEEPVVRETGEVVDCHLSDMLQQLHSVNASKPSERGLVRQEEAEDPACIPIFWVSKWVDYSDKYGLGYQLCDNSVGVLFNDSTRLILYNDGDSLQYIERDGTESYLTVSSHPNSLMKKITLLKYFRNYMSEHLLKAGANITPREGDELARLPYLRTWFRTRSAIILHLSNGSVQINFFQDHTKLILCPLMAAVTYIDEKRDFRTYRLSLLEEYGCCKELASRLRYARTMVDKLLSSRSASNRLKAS

How the values were obtained:
[1] = biological target: HA-MKlp2(1-842) (UniProt O95235); experiment: co-IP; HeLa cell lysates expressing HA-MKlp2 with Flag-Aurora B or Flag-Plk1; immunoprecipitation with antibodies against HA (Figure S2D)
[2] = biological target: HA-MKlp2(1-890) (UniProt O95235); experiment: as above

| binding [1] | binding [2] | Substance |
| --- | --- | --- |
| binds | binds | Flag-Aurora B (from UniProt Q96GD4 1-344) (enzyme) |
| binds | binds | Flag-Plk1 (from UniProt P53350 1-603) (enzyme) |
